Reference: PMC5996148
Some of the results follow.

Columns and labels:
Assay in all cases: protein microarray (ProtoArray v5.0), streptavidin-Alexa Fluor 647
Details in all cases: 3'-biotin; 20 mM Tris (pH 7.5), 5 mM MgCl2, 100 mM KCl, 0.1% Tween-20, A/T-rich and random oligonucleotide blockers; temperature not stated; high values mean tight binding
PALM (human) = system: PALM (human)
PALM2 (human) = system: PALM2 (human)
PANK1 (human) = system: PANK1 (human)
PANK2 (human) = system: PANK2 (human)
PANK4 (human) = system: PANK4 (human)
PAPOLA (human) = system: PAPOLA (human)
PARD6B (human) = system: PARD6B (human)
PARP11 (human) = system: PARP11 (human)
PARVG (human) = system: PARVG (human)
PBEF1 (human) = system: PBEF1 (human)

GGGAGGCTGAGGCAGG [G4-1 biotinylated (PQS2)]
binding signal (PALM (human)): -0.297 z-score | binding signal (PALM2 (human)): -0.339 z-score | binding signal (PANK1 (human)): -0.34 z-score | binding signal (PANK2 (human)): -0.317 z-score | binding signal (PANK4 (human)): -0.339 z-score | binding signal (PAPOLA (human)): -0.348 z-score | binding signal (PARD6B (human)): -0.319 z-score | binding signal (PARP11 (human)): -0.264 z-score | binding signal (PARVG (human)): -0.36 z-score | binding signal (PBEF1 (human)): -0.335 z-score
